# Screening data

Data taken from PubChem BioAssay AID1159506, deposited by NCATS (2015).

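Genome-wide siRNA knockdown in TC32 Ewing sarcoma cells, comparing luciferase light from an NR0B1-promoter reporter with a CMV-promoter reporter 48 hours after transfection.
Each siRNA was applied at 20 nM.
A z-score of the log NR0B1-over-CMV signal, less the median of siRNAs with the same seed; more negative means a stronger specific loss of the NR0B1 reporter.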

The strongest results of the screen are mostly left out here.
Sequences are the guide (antisense) strand, without overhang.

UGCUCGUCCAUAUAGGUCC against FAM160A2 read seed-corrected z-score -0.5655.
UUCCUUCUCGAUCCUGUGC against LCA10 read seed-corrected z-score 1.797.
UGCCGAACAACUUCGUGCU against C1orf174 read seed-corrected z-score -0.05877.
UCCUCAGCAACUUUUGUCC against KIAA1683 read seed-corrected z-score -0.6229.
AAUGGUACAACAUCCGAGU against SHANK3 read seed-corrected z-score 1.928.
UUAUGUACAGGCUACGCUC against RPRM read seed-corrected z-score 1.242.
UGACUGGAGACAUCUCAGG against TLE6 read seed-corrected z-score -0.7877.
AGGUGGUACACUUCUCCUC against XAGE3 read seed-corrected z-score -0.2228.
UAGUGGACCUCAUGGUAGC against NSUN5 read seed-corrected z-score 0.2366.
UCAUGGUAAACUCCCAUUA against CALML6 read seed-corrected z-score -0.1161.
AAAGAAGCAACUGUGGUAG against HCRTR1 read seed-corrected z-score 0.5259.
UCGGUUUUUAUAGUAACUG against ZNF711 read seed-corrected z-score 0.2774.
UAAUUCCACAACUUUACCC against KIF21B read seed-corrected z-score -0.6317.
UCUUCACCCAAGUCAAUGC against GPR101 read seed-corrected z-score -0.1287.
UAAACUUCAUUUUAGAUUC against TMSB4Y read seed-corrected z-score -0.486.
UUCAUAGCAGUGCUAAUCC against NDC1 read seed-corrected z-score -1.052.
UAGGUCUACACGUAUUUGC against EXOSC9 read seed-corrected z-score -0.1591.
UCCGAUACAAGGUCGUACA against KCNN1 read seed-corrected z-score -0.05795.
UAAUGUCAACUGCAAAGGC against SHF read seed-corrected z-score 0.3722.
UGACAUAGCACAUAGUCCC against SMO read seed-corrected z-score 0.1992.
UCAGCAAUGAUUCCUAUCU against MMACHC read seed-corrected z-score -0.4061.
UCCACUGUCAUAGCGAGUC against DNAJC7 read seed-corrected z-score 1.193.
UCUGUGACAUGAGGUCUGG against ZNF777 read seed-corrected z-score -0.8919.
UUACCAGCUGGAAUGGACG against ADH5P4 read seed-corrected z-score 0.3644.
UUAACAACAGUUCAUAAGG against ANKS1A read seed-corrected z-score -0.3804.
UGUAGAGCCCACAAAAUCU against LHFPL4 read seed-corrected z-score -0.1696.
UCACGGUGAACGUCUUGGG against NF2 read seed-corrected z-score -0.05784.
UUUGGAAUUAGGUGGACGG against TNRC6B read seed-corrected z-score 0.2533.
UUCAGGGUUACUGAGUCGG against UTP6 read seed-corrected z-score 0.07062.
UCAGCAGUGCGUUCCUUCC against LOC642696 read seed-corrected z-score 0.9071.
UGUUGUUCUUGAGCCUUCG against FAM120B read seed-corrected z-score -0.1112.
UGACCUAGUACUGUGCGUG against EXOSC3 read seed-corrected z-score 0.3753.
UGAAGUUAAAGUCAAGUGC against EPGN read seed-corrected z-score 0.007704.
AUCGAAGUUACUGUCAUCC against EDEM3 read seed-corrected z-score 0.7621.
UCCCAGAUAAGCUAAGGUC against TUBB4A read seed-corrected z-score 0.1022.
UCUGGAAACAUGUCAUAGG against MAP4K2 read seed-corrected z-score 0.3273.
UAUCGGACUGUUUUGCUCU against PCDH8 read seed-corrected z-score -0.2091.
UCGAGGAAUAUUUGAAGGC against ZNF333 read seed-corrected z-score 0.1346.
UAUUCGACAUCUCUCCACC against CEP104 read seed-corrected z-score 0.8286.
UUUCCUCCGAUUAAUGUAG against MSL3P1 read seed-corrected z-score 0.2203.
UCUUCAUCUAGUAUUCGGC against KANSL2 read seed-corrected z-score -0.5553.
AAGGCAUCACACACAUUCC against RAB40A read seed-corrected z-score 0.9399.
UUUGAAAUGAAACUGCUUG against PCBD1 read seed-corrected z-score 0.1766.
UCUUGUUAACAAAAUAGCC against C6orf10 read seed-corrected z-score 1.839.
UGGAAUAUCAUGAUCUUUG against AJUBA read seed-corrected z-score 0.06375.

The first 3 entries again:

{"strand": "UGCUCGUCCAUAUAGGUCC", "gene": "FAM160A2", "seed-corrected z-score": "-0.5655"}
{"strand": "UUCCUUCUCGAUCCUGUGC", "gene": "LCA10", "seed-corrected z-score": "1.797"}
{"strand": "UGCCGAACAACUUCGUGCU", "gene": "C1orf174", "seed-corrected z-score": "-0.05877"}